Measurements: the supplement of paper PMC4635364
Counter-ions that a name gives are not always drawn. Some of the results follow. Repeats in this data set agree poorly, so a single value says little.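 Human fetal ventral-midbrain neural progenitor line ReNCell VM, differentiated without mitogens. Images stained for doublecortin (early neurons) or tyrosine hydroxylase (dopaminergic neurons) were scored by blinded raters against untreated wells (0 = no change). Repeats and both raters were averaged, and compounds averaging 2 or higher were picked as hits for retesting.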

Key:
ReNCell VM [1] = assay: neuronal differentiation score (DCX+ cell fraction vs untreated, manual image score) (score (-3 to 3)); higher = more neuronal differentiation; conditions: 2 uM, 2 weeks
ReNCell VM [2] = assay: dopaminergic neuron differentiation score (TH+ cell fraction vs untreated, manual image score) (score (0 to 3)); higher = more TH+ dopaminergic neuron differentiation; conditions: 2 uM, 4 weeks, BDNF 10 ng/ml + GDNF 10 ng/ml

For C[C@]12CCC(=O)C(O)=C1CC[C@@H]1[C@@H]2CC[C@]2(C)C(=O)CC[C@@H]12 [Formestane], the neuronal differentiation score (ReNCell VM [1]; library: Prestwick) was inactive: 0 and the “dopaminergic neuron differentiation score” value (ReNCell VM [2]; library: Prestwick) was inactive: 0.

In the case of CC(=O)OC1CN2CCC1CC2 (stereo not given) [Aceclidine Hydrochloride], the neuronal differentiation score (ReNCell VM [1]; library: Prestwick) is reported as inactive: 0 and the “dopaminergic neuron differentiation score” value (ReNCell VM [2]; library: Prestwick) is reported as inactive: 0.

CN1[C@@H]2CC[C@H]1C[C@@H](OC(=O)[C@H](CO)c1ccccc1)C2 [L-Hyoscyamine] was tested, and the neuronal differentiation score (ReNCell VM [1]; library: LOPAC) was inactive: 0 and the “dopaminergic neuron differentiation score” value (ReNCell VM [2]; library: LOPAC) was inactive: 0.

For CC(CCc1ccccc1)NC(C)C(O)c1ccc(O)cc1 (stereo not given) [Nylidrin], the neuronal differentiation score (ReNCell VM [1]; library: Prestwick) was inactive: 0 and the “dopaminergic neuron differentiation score” value (ReNCell VM [2]; library: Prestwick) was inactive: 0.

In the case of Cc1c(C(=O)c2cccc3ccccc23)c2cccc3c2n1[C@H](CN1CCOCC1)CO3 [( R)-(+)-WIN 55,212-2 mesylate], the neuronal differentiation score (ReNCell VM [1]; library: LOPAC) is reported as inactive: 0 and the “dopaminergic neuron differentiation score” value (ReNCell VM [2]; library: LOPAC) is reported as inactive: 0.

For CO[C@H]1C=C2CCN(C)[C@H]2[C@@H]2c3cc4c(cc3[C@@H](O)O[C@@H]21)OCO4 [Unsevine], the neuronal differentiation score (ReNCell VM [1]; library: Phytochemical) was inactive: 0 and the “dopaminergic neuron differentiation score” value (ReNCell VM [2]; library: Phytochemical) was inactive: 0.

With [N-]=[N+]=CC(=O)OC[C@H](N)C(=O)O the neuronal differentiation score (ReNCell VM [1]; library: Spectrum) was inactive: 0 and the “dopaminergic neuron differentiation score” value (ReNCell VM [2]; library: Spectrum) was inactive: 0.

In the case of CN1C[C@H](CNC(=O)OCc2ccccc2)C[C@@H]2c3cccc4c3c(cn4C)C[C@H]21, the neuronal differentiation score (ReNCell VM [1]; library: Spectrum) is reported as inactive: 0 and the “dopaminergic neuron differentiation score” value (ReNCell VM [2]; library: Spectrum) is reported as inactive: 0.

In the case of CNC(C)C(O)c1ccccc1 (stereo not given), the neuronal differentiation score (ReNCell VM [1]; library: Spectrum) is reported as inactive: 0 and the “dopaminergic neuron differentiation score” value (ReNCell VM [2]; library: Spectrum) is reported as inactive: 0.

For C[C@H]1O[C@@H](O[C@H]2[C@@H](O)C[C@H](O[C@H]3[C@@H](O)C[C@H](O[C@H]4CC[C@@]5(C)[C@H](CC[C@@H]6[C@@H]5CC[C@]5(C)[C@@H](C7=CC(=O)OC7)[C@@H](O)C[C@]65O)C4)O[C@@H]3C)O[C@@H]2C)C[C@H](O)[C@@H]1O [Gitoxin], the neuronal differentiation score (ReNCell VM [1]; library: Phytochemical) was inactive: 0 and the “dopaminergic neuron differentiation score” value (ReNCell VM [2]; library: Phytochemical) was inactive: 0.

For CCC1(CC)C(=O)C=CNC1=O [Pyrithyldione], the neuronal differentiation score (ReNCell VM [1]; library: Prestwick) was inactive: 0 and the “dopaminergic neuron differentiation score” value (ReNCell VM [2]; library: Prestwick) was inactive: 0.

In the case of NCCc1c[nH]c2ccc(O)cc12 [Serotonin], the neuronal differentiation score (ReNCell VM [1]; library: Tocriscreen) is reported as inactive: 0 and the “dopaminergic neuron differentiation score” value (ReNCell VM [2]; library: Tocriscreen) is reported as inactive: 0.

In the case of O=[N+]([O-])c1ccc(O[C@@H]2O[C@H](CO)[C@@H](O)[C@H](O)[C@H]2F)c([N+](=O)[O-])c1 [2,4-Dinitrophenyl 2-fluoro-2-deoxy-beta-D-glucopyranoside], the neuronal differentiation score (ReNCell VM [1]; library: LOPAC) is reported as inactive: 0 and the “dopaminergic neuron differentiation score” value (ReNCell VM [2]; library: LOPAC) is reported as inactive: 0.

COc1ccc2c(c1)[C@]13CCCC[C@@H]1[C@H](C2)N(C)CC3 was tested, and the neuronal differentiation score (ReNCell VM [1]; library: Spectrum) was inactive: 0 and the “dopaminergic neuron differentiation score” value (ReNCell VM [2]; library: Spectrum) was inactive: 0.

With CO[C@H]1CC=C2CCN3CCC4=C(CC(=O)OC4)[C@]23C1 [Dihydro-beta-erythroidine hydrobromide] the neuronal differentiation score (ReNCell VM [1]; library: LOPAC) was inactive: 0 and the “dopaminergic neuron differentiation score” value (ReNCell VM [2]; library: LOPAC) was inactive: 0.

C[C@]12CC[C@@H]3c4ccc(OC(=O)N(CCCl)CCCl)cc4CC[C@H]3[C@@H]1CC[C@@H]2O was tested, and the neuronal differentiation score (ReNCell VM [1]; library: Spectrum) was inactive: 0 and the “dopaminergic neuron differentiation score” value (ReNCell VM [2]; library: Spectrum) was inactive: 0.

C=CCSSCC=C was tested, and the neuronal differentiation score (ReNCell VM [1]; library: Spectrum) was inactive: 0 and the “dopaminergic neuron differentiation score” value (ReNCell VM [2]; library: Spectrum) was inactive: 0.

In the case of CN1[C@@H]2CC[C@H]1CC(OC(=O)N1Cc3ccccc3NC1=O)C2 (stereo not given in full) [DAU 5884 hydrochloride], the neuronal differentiation score (ReNCell VM [1]; library: Tocriscreen) is reported as inactive: 0 and the “dopaminergic neuron differentiation score” value (ReNCell VM [2]; library: Tocriscreen) is reported as inactive: 0.

O=[N+]([O-])O[C@H]1CO[C@H]2[C@@H]1OC[C@H]2O[N+](=O)[O-] was tested, and the neuronal differentiation score (ReNCell VM [1]; library: Spectrum) was inactive: 0 and the “dopaminergic neuron differentiation score” value (ReNCell VM [2]; library: Spectrum) was inactive: 0.

With O=c1ccc2c(O)c3ccoc3cc2o1 the neuronal differentiation score (ReNCell VM [1]; library: Spectrum) was inactive: 0 and the “dopaminergic neuron differentiation score” value (ReNCell VM [2]; library: Spectrum) was inactive: 0.

With C[C@]12Cc3c[nH]nc3C[C@@H]1CC[C@@H]1[C@@H]2CC[C@@]2(C)[C@H]1CC[C@]2(C)O [Stanozolol] the neuronal differentiation score (ReNCell VM [1]; library: Prestwick) was inactive: 0 and the “dopaminergic neuron differentiation score” value (ReNCell VM [2]; library: Prestwick) was inactive: 0.

Cc1[nH]c2ccc(O)cc2c1CCN [2-Methyl-5-hydroxytryptamine hydrochloride] was tested, and the neuronal differentiation score (ReNCell VM [1]; library: Tocriscreen) was inactive: 0 and the “dopaminergic neuron differentiation score” value (ReNCell VM [2]; library: Tocriscreen) was inactive: 0.

CNc1ccccc1C(=O)O was tested, and the neuronal differentiation score (ReNCell VM [1]; library: Spectrum) was inactive: 0 and the “dopaminergic neuron differentiation score” value (ReNCell VM [2]; library: Spectrum) was inactive: 1.

With C#C[C@]1(O)CC[C@H]2[C@@H]3CCC4=CC(=O)CCC4=C3C=C[C@@]21CC [Gestrinone] the neuronal differentiation score (ReNCell VM [1]; library: Prestwick) was inactive: 0 and the “dopaminergic neuron differentiation score” value (ReNCell VM [2]; library: Prestwick) was inactive: 0.

With CCCN1CCO[C@@H]2c3cc(O)ccc3OC[C@H]21 the neuronal differentiation score (ReNCell VM [1]; library: Tocriscreen) was inactive: 0 and the “dopaminergic neuron differentiation score” value (ReNCell VM [2]; library: Tocriscreen) was inactive: 0.

In the case of C[C@@H](CO)NC(=O)[C@@H]1C=C2c3cccc4[nH]cc(c34)C[C@H]2N(C)C1, the neuronal differentiation score (ReNCell VM [1]; library: Spectrum) is reported as inactive: 0 and the “dopaminergic neuron differentiation score” value (ReNCell VM [2]; library: Spectrum) is reported as inactive: 0.

For O=C(O)CCCc1ccc(N(CCCl)CCCl)cc1, the neuronal differentiation score (ReNCell VM [1]; library: Spectrum) was inactive: 0 and the “dopaminergic neuron differentiation score” value (ReNCell VM [2]; library: Spectrum) was inactive: 0.

With CN1[C@@H]2CC[C@H]1C[C@@H](OC(=O)[C@H](CO)c1ccccc1)C2 the neuronal differentiation score (ReNCell VM [1]; library: Spectrum) was inactive: 0 and the “dopaminergic neuron differentiation score” value (ReNCell VM [2]; library: Spectrum) was inactive: 0.

With O=C1C[C@@H]2OCC=C3CN4CC[C@]56c7ccccc7N1[C@H]5[C@H]2[C@H]3C[C@H]46 [Strychnine] the neuronal differentiation score (ReNCell VM [1]; library: Phytochemical) was inactive: 0 and the “dopaminergic neuron differentiation score” value (ReNCell VM [2]; library: Phytochemical) was inactive: 0.

CN[C@@H]1[C@@H](O)[C@@H](O[C@@H]2[C@@H](O)[C@H](O[C@H]3O[C@H](CN)CC[C@H]3N)[C@@H](N)C[C@H]2N)OC[C@]1(C)O.CN[C@@H]1[C@@H](O)[C@@H](O[C@@H]2[C@@H](O)[C@H](O[C@H]3O[C@H]([C@@H](C)N)CC[C@H]3N)[C@@H](N)C[C@H]2N)OC[C@]1(C)O.CN[C@@H]1[C@@H](O)[C@@H](O[C@@H]2[C@@H](O)[C@H](O[C@H]3O[C@H]([C@@H](C)NC)CC[C@H]3N)[C@@H](N)C[C@H]2N)OC[C@]1(C)O [Gentamicine sulfate] was tested, and the neuronal differentiation score (ReNCell VM [1]; library: Prestwick) was inactive: 0 and the “dopaminergic neuron differentiation score” value (ReNCell VM [2]; library: Prestwick) was inactive: 0.
